Most of the targets with a hit are listed elsewhere, so they are rarer here than in the full data. The data scatter; read single values as rough. Only a part is listed here, and it is no random draw.
These targets were tested with COC(=O)/C=C/c1ccccc1 [methyl cinnamate] (assay: log2 ratio of iodoacetamide-alkyne labeling of the cysteine site, DMSO over compound (competition); higher = stronger covalent engagement of the cysteine by the compound, active = 1 or more). Details: 500 µM; treatment time 1 h; system: HEK293T cell lysate.
How it was run: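 Three replicates, each with duplicate channels, were prepared from HEK293T lysate (2 mg/mL) treated with vehicle or electrophile at 500 µM for 1 h at ambient temperature. Iodoacetamide alkyne was then applied for 1 h, and samples were clicked to sCIP-TMT reagents, pooled, trypsin-digested overnight at 37 °C, enriched on streptavidin, acid-eluted and analysed on Orbitrap Eclipse LC-MS/MS with FAIMS, with FragPipe quantification. The log2 competition ratio per cysteine is the mean control-channel divided by the mean compound-channel reporter intensity. Cysteines quantified in only one replicate were left out.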

The chains behind the UniProt entries cited, without tags or fusion partners. Where a name states a change or a piece, a line headed by the entry shows the natural chain unless it says otherwise.
UniProt Q8IYL2: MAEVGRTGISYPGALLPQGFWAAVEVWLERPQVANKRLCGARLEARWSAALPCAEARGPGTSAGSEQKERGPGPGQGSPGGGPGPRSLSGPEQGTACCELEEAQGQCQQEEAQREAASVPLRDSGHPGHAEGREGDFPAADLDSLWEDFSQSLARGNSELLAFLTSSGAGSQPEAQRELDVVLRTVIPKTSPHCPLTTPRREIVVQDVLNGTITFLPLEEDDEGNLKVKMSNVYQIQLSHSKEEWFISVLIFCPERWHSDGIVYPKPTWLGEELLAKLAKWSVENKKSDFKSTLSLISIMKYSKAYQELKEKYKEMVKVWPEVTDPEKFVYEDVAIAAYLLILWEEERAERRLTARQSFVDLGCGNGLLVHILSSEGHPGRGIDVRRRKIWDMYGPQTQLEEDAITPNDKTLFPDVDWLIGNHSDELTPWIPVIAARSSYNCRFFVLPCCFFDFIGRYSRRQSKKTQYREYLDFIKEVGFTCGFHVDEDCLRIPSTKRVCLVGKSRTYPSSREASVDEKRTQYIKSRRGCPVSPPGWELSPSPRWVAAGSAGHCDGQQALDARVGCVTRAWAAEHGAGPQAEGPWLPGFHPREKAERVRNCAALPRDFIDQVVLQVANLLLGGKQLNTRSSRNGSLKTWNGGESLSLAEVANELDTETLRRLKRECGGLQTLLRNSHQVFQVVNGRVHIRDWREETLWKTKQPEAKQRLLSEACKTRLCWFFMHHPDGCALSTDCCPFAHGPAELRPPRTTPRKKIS
UniProt Q7Z3B4: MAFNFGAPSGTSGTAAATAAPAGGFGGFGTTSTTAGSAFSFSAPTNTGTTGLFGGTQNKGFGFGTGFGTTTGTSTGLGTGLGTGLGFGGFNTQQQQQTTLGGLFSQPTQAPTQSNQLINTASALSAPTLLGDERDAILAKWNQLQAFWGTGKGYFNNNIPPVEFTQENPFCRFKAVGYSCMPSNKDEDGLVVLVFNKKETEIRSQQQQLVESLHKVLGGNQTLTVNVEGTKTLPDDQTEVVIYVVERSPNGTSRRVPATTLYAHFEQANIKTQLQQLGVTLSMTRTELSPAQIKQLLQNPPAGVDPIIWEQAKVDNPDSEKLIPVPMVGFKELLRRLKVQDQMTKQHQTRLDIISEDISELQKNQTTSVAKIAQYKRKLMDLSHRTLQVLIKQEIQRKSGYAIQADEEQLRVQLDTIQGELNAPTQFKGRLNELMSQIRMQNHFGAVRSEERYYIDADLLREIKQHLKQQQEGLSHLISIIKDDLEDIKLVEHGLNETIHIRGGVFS
UniProt Q7L5N1: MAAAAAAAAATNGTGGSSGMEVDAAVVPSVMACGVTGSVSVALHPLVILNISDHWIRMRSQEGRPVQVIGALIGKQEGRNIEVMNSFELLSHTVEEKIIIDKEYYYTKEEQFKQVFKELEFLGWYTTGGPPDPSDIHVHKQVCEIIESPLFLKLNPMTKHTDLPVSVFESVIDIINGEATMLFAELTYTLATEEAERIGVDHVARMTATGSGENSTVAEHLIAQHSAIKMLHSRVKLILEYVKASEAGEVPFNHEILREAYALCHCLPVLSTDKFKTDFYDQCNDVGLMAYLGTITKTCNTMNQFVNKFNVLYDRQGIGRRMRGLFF
UniProt Q8IZ69: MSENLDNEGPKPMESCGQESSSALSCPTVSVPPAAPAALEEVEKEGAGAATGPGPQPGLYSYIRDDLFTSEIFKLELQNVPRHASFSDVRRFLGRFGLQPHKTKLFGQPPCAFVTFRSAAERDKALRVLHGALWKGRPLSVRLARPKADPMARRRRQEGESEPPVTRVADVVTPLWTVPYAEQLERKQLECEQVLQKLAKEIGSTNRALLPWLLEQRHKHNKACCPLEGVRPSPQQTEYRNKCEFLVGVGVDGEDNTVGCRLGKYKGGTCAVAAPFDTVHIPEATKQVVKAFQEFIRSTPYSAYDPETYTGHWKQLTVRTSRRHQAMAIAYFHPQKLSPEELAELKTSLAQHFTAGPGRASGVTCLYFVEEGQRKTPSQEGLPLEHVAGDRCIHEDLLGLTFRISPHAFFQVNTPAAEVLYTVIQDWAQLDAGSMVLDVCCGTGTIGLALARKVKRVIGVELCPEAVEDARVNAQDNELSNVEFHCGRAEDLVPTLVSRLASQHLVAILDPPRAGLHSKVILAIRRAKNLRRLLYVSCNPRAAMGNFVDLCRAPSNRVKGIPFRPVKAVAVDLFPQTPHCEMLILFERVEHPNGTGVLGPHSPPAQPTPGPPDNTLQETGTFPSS
UniProt Q7Z6Z7, whole entry, looked up: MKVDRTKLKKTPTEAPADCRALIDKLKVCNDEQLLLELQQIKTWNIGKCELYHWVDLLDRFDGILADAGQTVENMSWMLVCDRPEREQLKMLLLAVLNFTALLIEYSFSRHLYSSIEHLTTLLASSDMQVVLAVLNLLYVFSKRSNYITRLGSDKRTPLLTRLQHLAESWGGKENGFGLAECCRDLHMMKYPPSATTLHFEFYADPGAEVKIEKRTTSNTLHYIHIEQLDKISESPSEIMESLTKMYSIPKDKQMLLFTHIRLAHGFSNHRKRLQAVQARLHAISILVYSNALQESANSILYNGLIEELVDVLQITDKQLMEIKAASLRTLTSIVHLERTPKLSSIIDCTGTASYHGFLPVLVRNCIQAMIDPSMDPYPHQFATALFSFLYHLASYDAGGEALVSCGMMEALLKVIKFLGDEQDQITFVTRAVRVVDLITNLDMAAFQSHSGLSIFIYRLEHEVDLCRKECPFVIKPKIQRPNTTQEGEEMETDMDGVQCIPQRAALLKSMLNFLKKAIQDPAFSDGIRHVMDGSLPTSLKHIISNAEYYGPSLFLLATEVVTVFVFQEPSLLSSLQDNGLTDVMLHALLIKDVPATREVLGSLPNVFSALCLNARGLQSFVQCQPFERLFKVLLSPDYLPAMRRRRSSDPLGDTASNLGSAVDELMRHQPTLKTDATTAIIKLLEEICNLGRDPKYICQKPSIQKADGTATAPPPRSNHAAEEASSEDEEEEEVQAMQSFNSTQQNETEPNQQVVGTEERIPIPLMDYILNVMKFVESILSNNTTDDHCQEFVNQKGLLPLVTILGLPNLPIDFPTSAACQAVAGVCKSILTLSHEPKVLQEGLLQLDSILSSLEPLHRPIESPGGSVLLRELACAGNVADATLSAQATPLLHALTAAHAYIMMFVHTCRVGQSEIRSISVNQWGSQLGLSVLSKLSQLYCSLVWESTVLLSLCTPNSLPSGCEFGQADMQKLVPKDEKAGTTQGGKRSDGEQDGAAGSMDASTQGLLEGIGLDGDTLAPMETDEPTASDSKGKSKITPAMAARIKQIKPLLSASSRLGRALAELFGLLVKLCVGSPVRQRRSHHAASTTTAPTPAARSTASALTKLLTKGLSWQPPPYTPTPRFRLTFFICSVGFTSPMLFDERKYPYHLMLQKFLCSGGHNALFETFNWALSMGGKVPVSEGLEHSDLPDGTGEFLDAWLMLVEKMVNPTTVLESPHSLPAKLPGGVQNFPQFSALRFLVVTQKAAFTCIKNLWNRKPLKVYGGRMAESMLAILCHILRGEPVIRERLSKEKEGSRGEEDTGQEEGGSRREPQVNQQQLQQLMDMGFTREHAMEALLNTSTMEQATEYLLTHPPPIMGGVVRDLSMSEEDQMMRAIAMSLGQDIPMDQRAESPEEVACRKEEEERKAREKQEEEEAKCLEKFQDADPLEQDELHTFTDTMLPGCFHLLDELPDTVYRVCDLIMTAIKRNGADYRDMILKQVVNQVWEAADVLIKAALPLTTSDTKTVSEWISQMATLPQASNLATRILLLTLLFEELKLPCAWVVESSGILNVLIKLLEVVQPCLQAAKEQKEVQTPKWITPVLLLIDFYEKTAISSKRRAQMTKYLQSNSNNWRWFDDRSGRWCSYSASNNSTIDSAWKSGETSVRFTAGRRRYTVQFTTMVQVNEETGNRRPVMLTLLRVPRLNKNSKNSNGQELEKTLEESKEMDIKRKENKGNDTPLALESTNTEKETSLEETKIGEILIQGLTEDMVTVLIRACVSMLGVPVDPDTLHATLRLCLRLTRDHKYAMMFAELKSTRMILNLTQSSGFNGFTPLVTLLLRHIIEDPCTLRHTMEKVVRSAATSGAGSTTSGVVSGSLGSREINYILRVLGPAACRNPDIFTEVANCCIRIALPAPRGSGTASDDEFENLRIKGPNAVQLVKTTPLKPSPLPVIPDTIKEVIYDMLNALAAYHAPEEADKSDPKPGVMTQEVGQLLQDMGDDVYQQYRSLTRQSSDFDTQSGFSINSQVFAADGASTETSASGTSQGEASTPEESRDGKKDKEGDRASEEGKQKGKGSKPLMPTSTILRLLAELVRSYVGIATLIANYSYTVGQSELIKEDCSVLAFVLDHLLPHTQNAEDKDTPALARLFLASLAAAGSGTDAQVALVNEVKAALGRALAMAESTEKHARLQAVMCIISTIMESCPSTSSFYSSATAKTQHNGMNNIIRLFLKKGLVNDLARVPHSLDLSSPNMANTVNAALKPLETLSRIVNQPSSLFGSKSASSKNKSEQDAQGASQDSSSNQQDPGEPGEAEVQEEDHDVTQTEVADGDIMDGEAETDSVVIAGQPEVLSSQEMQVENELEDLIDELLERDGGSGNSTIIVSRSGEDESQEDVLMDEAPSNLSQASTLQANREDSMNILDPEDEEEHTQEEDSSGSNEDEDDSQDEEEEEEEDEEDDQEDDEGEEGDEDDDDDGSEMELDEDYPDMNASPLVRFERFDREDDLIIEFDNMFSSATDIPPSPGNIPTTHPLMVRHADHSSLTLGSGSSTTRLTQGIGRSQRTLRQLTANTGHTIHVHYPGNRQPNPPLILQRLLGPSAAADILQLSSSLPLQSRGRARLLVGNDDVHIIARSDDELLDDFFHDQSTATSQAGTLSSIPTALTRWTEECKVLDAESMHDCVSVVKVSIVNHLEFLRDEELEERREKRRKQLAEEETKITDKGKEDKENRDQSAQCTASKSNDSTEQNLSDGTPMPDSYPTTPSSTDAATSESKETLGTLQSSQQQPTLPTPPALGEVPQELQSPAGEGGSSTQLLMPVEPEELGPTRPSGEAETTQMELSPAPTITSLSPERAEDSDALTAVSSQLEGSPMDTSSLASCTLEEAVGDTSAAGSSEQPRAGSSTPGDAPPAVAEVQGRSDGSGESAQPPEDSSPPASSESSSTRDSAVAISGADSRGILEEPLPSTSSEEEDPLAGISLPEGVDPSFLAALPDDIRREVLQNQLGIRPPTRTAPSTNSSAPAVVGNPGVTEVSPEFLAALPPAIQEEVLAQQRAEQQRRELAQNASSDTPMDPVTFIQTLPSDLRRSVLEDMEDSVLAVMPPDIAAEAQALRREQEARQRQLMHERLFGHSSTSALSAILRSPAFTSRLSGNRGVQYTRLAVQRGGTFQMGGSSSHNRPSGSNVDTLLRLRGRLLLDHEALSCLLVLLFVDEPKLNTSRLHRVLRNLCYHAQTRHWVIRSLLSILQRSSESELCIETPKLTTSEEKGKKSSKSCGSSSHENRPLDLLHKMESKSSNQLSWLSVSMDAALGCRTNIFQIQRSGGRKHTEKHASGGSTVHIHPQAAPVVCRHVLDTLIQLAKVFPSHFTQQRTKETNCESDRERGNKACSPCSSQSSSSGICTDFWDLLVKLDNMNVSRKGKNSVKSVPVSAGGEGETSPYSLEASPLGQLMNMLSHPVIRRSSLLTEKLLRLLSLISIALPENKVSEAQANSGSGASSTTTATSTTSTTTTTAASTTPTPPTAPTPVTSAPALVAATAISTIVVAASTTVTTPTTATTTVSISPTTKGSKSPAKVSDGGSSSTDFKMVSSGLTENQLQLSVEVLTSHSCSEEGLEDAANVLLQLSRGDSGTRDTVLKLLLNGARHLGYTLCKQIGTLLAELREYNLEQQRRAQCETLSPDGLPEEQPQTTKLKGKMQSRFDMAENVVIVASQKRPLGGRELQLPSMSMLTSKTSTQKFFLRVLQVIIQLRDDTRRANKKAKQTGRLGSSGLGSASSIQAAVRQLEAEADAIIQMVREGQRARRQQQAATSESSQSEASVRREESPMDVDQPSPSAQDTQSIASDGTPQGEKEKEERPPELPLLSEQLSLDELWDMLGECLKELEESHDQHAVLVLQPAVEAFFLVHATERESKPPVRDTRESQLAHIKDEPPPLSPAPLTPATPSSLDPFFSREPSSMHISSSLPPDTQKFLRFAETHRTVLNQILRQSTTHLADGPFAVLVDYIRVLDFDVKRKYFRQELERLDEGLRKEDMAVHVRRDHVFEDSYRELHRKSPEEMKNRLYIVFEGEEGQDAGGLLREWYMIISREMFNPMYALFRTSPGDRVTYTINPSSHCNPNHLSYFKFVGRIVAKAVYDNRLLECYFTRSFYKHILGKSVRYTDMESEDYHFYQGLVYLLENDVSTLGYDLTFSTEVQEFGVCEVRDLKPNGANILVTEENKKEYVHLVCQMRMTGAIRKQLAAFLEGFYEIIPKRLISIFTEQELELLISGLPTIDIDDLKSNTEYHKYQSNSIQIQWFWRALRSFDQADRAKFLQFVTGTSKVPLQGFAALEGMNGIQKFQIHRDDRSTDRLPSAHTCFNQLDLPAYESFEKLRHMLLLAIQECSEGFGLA

Q: For UniProt Q8IYL2_C666, which “log2 ratio of iodoacetamide-alkyne labeling” value (“log2 ratio” for short) is on record?
A: Its value is inactive: 0.201.

Q: With RHOT2 C216 (UniProt Q8IXI1) as the target, how does the “log2 ratio” value read?
A: Its value is inactive: 0.313.

Q: For CYFIP1 C1241 (UniProt Q7L576), which “log2 ratio” value is on record?
A: Its value is inactive: 0.105.

Q: NUP54 C180 (UniProt Q7Z3B4) was tested. Which “log2 ratio” value did it give?
A: Its value is inactive: 0.12.

Q: With SUPT6H C1198 (UniProt Q7KZ85) as the target, how does the “log2 ratio” value read?
A: The value was inactive: -0.0546.

Q: For KTN1 C1105 (UniProt Q86UP2), which “log2 ratio” value is on record?
A: Its value is inactive: 0.497.

Q: With FTSJ3 C52 (UniProt Q8IY81) as the target, how does the “log2 ratio” value read?
A: Its value is inactive: 0.0113.

Q: With COPS6 C283 (UniProt Q7L5N1) as the target, how does the “log2 ratio” value read?
A: Its value is inactive: 0.238.

Q: With UniProt Q7Z4H7_C885 as the target, how does the “log2 ratio” value read?
A: The value was inactive: 0.134.

Q: For CAND1 C131 (UniProt Q86VP6), which “log2 ratio” value is on record?
A: The value was inactive: 0.0918.

Q: For GATAD2A C417 (UniProt Q86YP4), which “log2 ratio” value is on record?
A: The value was inactive: 0.0595.

Q: How did the “log2 ratio” value turn out when DIS3L2 C312 (UniProt Q8IYB7) was run?
A: Its value is inactive: 0.147.

Q: With TRMT2A C392 (UniProt Q8IZ69) as the target, how does the “log2 ratio” value read?
A: Its value is inactive: 0.14.

Q: METTL3 C500 (UniProt Q86U44) was tested. Which “log2 ratio” value did it give?
A: Its value is inactive: 0.162.

Q: How did the “log2 ratio” value turn out when USP48 C658 (UniProt Q86UV5) was run?
A: The value was inactive: -0.0324.

Q: How did the “log2 ratio” value turn out when HUWE1 C1628 (UniProt Q7Z6Z7) was run?
A: The value was inactive: 0.229.

Q: Which “log2 ratio” value does the source give for UniProt Q86Y56_C773 here?
A: Its value is inactive: 0.0217.

Q: How did the “log2 ratio” value turn out when PEG10 C119 (UniProt Q86TG7) was run?
A: The value was inactive: -0.0124.

Q: Which “log2 ratio” value does the source give for DHX30 C461 (UniProt Q7L2E3) here?
A: The value was inactive: 0.152.

Q: Which “log2 ratio” value does the source give for UniProt Q7L2H7_C134 here?
A: Its value is inactive: -0.236.

Q: With ISCA2 C146 (UniProt Q86U28) as the target, how does the “log2 ratio” value read?
A: The value was inactive: 0.503.

Q: For NCAPG2 C776 (UniProt Q86XI2), which “log2 ratio” value is on record?
A: The value was inactive: 0.186.
